From PubChem BioAssay AID540276 (National Center for Advancing Translational Sciences (NCATS), 2011)
About 5,400 (1.8%) of roughly 300,000 compounds were called active. The inconclusive results got no clear call from the source; some entries with a clear call stand among them for comparison. Calls come from the whole dose curve; tested in HEK293 cells. Potencies beside an inconclusive call are fits to weak or partial responses and may not hold up.

Test: qHTS for inhibitors of binding or entry into cells for Marburg Virus
Conditions: Marburg virus pseudotyped entry inhibition, cell reporter; activity change, negative = inhibition: at 37.8 µM (top of the series) unless noted
% is set by controls: 0 for no effect and ±100 for the full control effect; potency is the fitted concentration of half-maximal effect.

Structure (SMILES) | activity change, negative = inhibition | Potency
Cc1ccc(-c2cc(NC(=O)C(C)Oc3ccccc3F)on2)cc1 (configuration not stated) | inactive: 16% [at 46.1 µM] | –
O=C(Nc1ccc(N2CCOCC2)cc1)C1CCCN(S(=O)(=O)c2ccccc2)C1 (configuration not stated) | – | inconclusive: 14.1 µM [inhibitor, partial curve, poor fit]
CCCCN1C(=O)NC(NC(=O)C2CC2)(C(F)(F)F)C1=O (configuration not stated) | – | inconclusive: 35.5 µM [inhibitor, single point]
Cc1[nH]c2ccccc2c1C(c1ccncc1)N1CCN(c2ccccc2F)CC1 (configuration not stated) | inactive: 0.181% | –
O=C(CSc1nc2c(c(=O)n1-c1ccc(F)cc1)SCC2)N1CCCC1 | – | inconclusive: 11.2 µM [activator, partial curve, poor fit]
Clc1ccsc1-c1ccc2ccccc2n1 | – | inconclusive: 10 µM [activator, partial curve, poor fit]
O=C(CNC(=O)c1ccc2c(c1)OCO2)N/N=C/c1cc(Br)ccc1O | – | active: 11.2 µM
Cc1c(C(=O)N2CCCCC2)sc(NC(=O)c2ccco2)c1C#N | inactive: 0.862% | –
O=C(N/N=C/c1ccco1)c1cc(-c2ccc3ccccc3c2)n[nH]1 | – | active: 12.6 µM
CN(C)S(=O)(=O)c1cc(NC(=O)CN2CCOCC2)ccc1Cl | – | inconclusive: 8.91 µM [activator, partial curve, poor fit]
CCOC(=O)c1sc2nc(C)nc(Nc3ccc(OC)cc3)c2c1C | – | inconclusive: 2.24 µM [activator, single point]
COc1ccc(NC(=O)CCCn2c(=O)c3sccc3n(Cc3ccccc3C)c2=O)cc1 | – | inconclusive: 15.8 µM [inhibitor, single point]
COc1ccc(CCNc2ccncn2)cc1OC | inactive: -4.6% | –
Cc1ccc(NCc2nnc(SCC(=O)Nc3ncc(C)s3)n2CC2CCCO2)c(C)c1 (configuration not stated) | – | inconclusive: 10 µM [inhibitor, partial curve]
Cc1cc(C)c(C)c(S(=O)(=O)N2CCN(C(=O)c3cc(=O)[nH]c4ccccc34)CC2)c1C | – | inconclusive: 7.3 µM [inhibitor, partial curve, poor fit]
C[C@]12C=CC(=O)C=C1CCC1C2=CC[C@]2(C)[C@@H](C(=O)CN3CCN(c4cc(N5CCCC5)nc(N5CCCC5)n4)CC3)CC[C@@H]12 (some centres not stated) | – | active: 5.62 µM
Cc1ccc(Nc2nc(N/N=C\c3ccc4c(c3)OCO4)nc(N3CCOCC3)n2)cc1 | – | inconclusive: 2.24 µM [inhibitor, partial curve, poor fit]
CCn1cc(C2=NOC(C(=O)O)C2)c(C)n1 (configuration not stated) | inactive: -20.2% | –
COc1ccc(Nc2c3c(nc4ccc(NC(=O)c5cc(Cl)ccc5OC)cc24)CCCC3)cc1OC | – | inconclusive: 12.6 µM [inhibitor, partial curve, poor fit]
CCOc1ccc(CC(=O)Nc2c(C(=O)c3ccc(F)cc3)oc3ccc(Cl)cc23)cc1OCC | – | inconclusive: 0.562 µM [activator, full curve, poor fit]
O=S(=O)(NCC(c1ccco1)N1CCc2ccccc2C1)c1ccc(Br)cc1 (configuration not stated) | – | inconclusive: 11.2 µM [inhibitor, partial curve, poor fit]
O=C(N/C(=C\c1ccc(Br)cc1)C(=O)N1CCOCC1)c1ccc(Br)o1 | inactive: -11.9% [at 46.1 µM] | –
Cc1ccccc1Nc1nc(N)nc(COC(=O)[C@@H](NC(=O)c2ccccc2Cl)C(C)C)n1 | – | inconclusive: 2.82 µM [inhibitor, full curve, poor fit]

Single values from the results shown:
Under Potency, `O=S(=O)(NCC(c1ccco1)N1CCc2ccccc2C1)c1ccc(Br)cc1` (configuration not stated) is listed with inconclusive: 11.2 µM [inhibitor, partial curve, poor fit]
Under Potency, `O=C(N/N=C/c1ccco1)c1cc(-c2ccc3ccccc3c2)n[nH]1` is listed with active: 12.6 µM
Under Potency, `Cc1cc(C)c(C)c(S(=O)(=O)N2CCN(C(=O)c3cc(=O)[nH]c4ccccc34)CC2)c1C` is listed with inconclusive: 7.3 µM [inhibitor, partial curve, poor fit]
Under Potency, `Clc1ccsc1-c1ccc2ccccc2n1` is listed with inconclusive: 10 µM [activator, partial curve, poor fit]
Under activity change, negative = inhibition, `COc1ccc(CCNc2ccncn2)cc1OC` is listed with inactive: -4.6%

Additional structures follow:

Structure (SMILES) | activity change, negative = inhibition | Potency
CCN1C(=O)/C(=C/C=C2/CCCN2C)OC1=S | inactive: -1.31% | –
CS(=O)(=O)c1ccc2nc(NC(=O)C3CCCO3)sc2c1 (configuration not stated) | – | inconclusive: 10 µM [activator, partial curve, poor fit]
Cc1nnc(SCC(=O)Nc2sc3c(c2C(=O)c2ccccc2)CCCC3)s1 | inactive: 18% | –
COc1ccccc1NC(=O)CSc1nnc(CNC(=O)c2ccco2)o1 | inactive: 1.23% | –
CC(=O)c1c[nH]c2ccc(C)cc2c1=O | – | inconclusive: 1.26 µM [inhibitor, single point]
Cc1ccccc1Nc1nc(N)nc(COC(=O)c2ccco2)n1 | – | inconclusive: 5.62 µM [activator, full curve, poor fit]
CC(NC(=O)COC(=O)CCc1ccccc1)c1ccccc1 (configuration not stated) | – | inconclusive: 6.51 µM [activator, single point]
O=C(COc1ccc(C(=O)NCc2cccnc2)cc1)Nc1cccc(C(F)(F)F)c1 | – | inconclusive: 22.4 µM [inhibitor, single point]
Cc1ccc(-c2cc(C(=O)N/N=C/c3ccc(F)cc3)n[nH]2)o1 | inactive: -1.08% [at 46.1 µM] | –
Cc1c(NC(=O)C(Sc2ccccc2)c2ccccc2)cccc1[N+](=O)[O-] (configuration not stated) | – | inconclusive: 10 µM [inhibitor, partial curve, poor fit]
C/C(=N\NC(=O)COc1ccc(C)cc1[N+](=O)[O-])c1cccs1 | inactive: 29.4% [at 46.1 µM] | –
O=C(CN(c1ccc2c(c1)OCCO2)S(=O)(=O)c1ccccc1)N1CCN(Cc2ccccc2)CC1 | – | inconclusive: 0.562 µM [inhibitor, full curve, poor fit]
CCOC(=O)c1[nH]c2ccc(OC)cc2c1NC(=O)CCN1CCN(Cc2ccccc2)CC1 | – | inconclusive: 12.6 µM [inhibitor, single point]
COc1cc(C(=O)NNC(=S)NC(=O)c2ccc(F)cc2)cc(OC)c1OC | – | inconclusive: 11.2 µM [inhibitor, partial curve, poor fit]
CCc1cccc2c(C(=O)CN3C(=O)NC(C)(c4cccc5ccccc45)C3=O)c[nH]c12 (configuration not stated) | – | inconclusive: 11.2 µM [inhibitor, partial curve, poor fit]
O=C(c1cc(COc2ccc(F)cc2F)on1)N1C[C@H]2CC[C@H]1C2 | – | inconclusive: 7.94 µM [activator, partial curve, poor fit]
Cc1ccc(NS(=O)(=O)c2ccc3c(c2)NC(=O)CCS3)c(C)c1 | – | inconclusive: 8.91 µM [inhibitor, full curve, poor fit]
Cc1onc(-c2ccccc2)c1NC(=O)Nc1c(-c2ccccc2)noc1C | – | inconclusive: 0.355 µM [inhibitor, partial curve, poor fit]
CN(C)S(=O)(=O)c1cccc(NC(=O)COC(=O)C2CCN(C(=O)c3ccc(F)cc3)CC2)c1 | – | inconclusive: 1.26 µM [inhibitor, full curve, poor fit]
Cc1ccc(CNC(=O)c2ccc(N3Cc4ccccc4Oc4ncccc43)s2)cc1 | inactive: -12.2% [at 46.1 µM] | –
CCOCCCNC(=O)C(c1ccc(Cl)cc1)N(Cc1ccc2c(c1)OCO2)C(=O)c1ccc(NC(C)=O)cc1 (configuration not stated) | – | inconclusive: 25.1 µM [inhibitor, single point]
Cc1ccc(C2N3CC4(C)CN2CC(c2ccccc2)(C3)C4=O)cc1 (configuration not stated) | inactive: 3.04% [at 46.1 µM] | –
CCOC(=O)COc1ccc(C(c2c(C)[nH][nH]c2=O)c2c(C)[nH][nH]c2=O)cc1 | inactive: 3.75% [at 46.1 µM] | –

Structure (SMILES) | activity change, negative = inhibition | Potency
CCn1cc(/C=C(\NC(=O)c2ccccc2Cl)C(=O)NCCCn2ccnc2)c2ccccc21 | inactive: -25.8% [at 46.1 µM] | –
C/C(CC(=O)Nc1ccc(Cl)cc1Cl)=N\NC(=O)c1ccco1 | – | inconclusive: 5.62 µM [activator, single point]
CCCCNC(=O)COC(=O)CNC(=O)c1cc(Cl)cc([N+](=O)[O-])c1 | – | inconclusive: 5.01 µM [activator, single point]
Cc1coc(=N)n1CC(=O)c1ccc(Cl)cc1 | – | inconclusive: 3.16 µM [activator, partial curve, poor fit]
CCN1CCN(c2ccc(S(=O)(=O)N3CCOCC3)cc2N)CC1 | inactive: 21% | –
COC(=O)c1c2c(nc3ccccc13)CCC2 | inactive: 2.82% | –
COCCNC(=O)CCCn1c(SCc2ccccc2C)nc2c(sc3ccccc32)c1=O | – | inconclusive: 3.55 µM [inhibitor, partial curve, poor fit]
Cc1cccc(-c2nsc(SCC(=O)Nc3ccc4c(c3)OCO4)n2)c1 | – | inconclusive: 0.316 µM [activator, partial curve, poor fit]
CCOC(=O)C1CCN(S(=O)(=O)c2cccc3nonc23)CC1 | inactive: -5.07% [at 46.1 µM] | –
CCC(Sc1nc2ccncc2[nH]1)C(=O)Nc1cc(C)ccc1C (configuration not stated) | inactive: 2.44% [at 46.1 µM] | –
Cc1nn(Cc2ccc(Cl)cc2)c(C)c1NC(=O)CSc1nc2c(c(C(F)(F)F)n1)CCc1ccccc1-2 | – | active: 11.6 µM
O=C1NC(=O)N(C2CCCCC2)CC1Br (configuration not stated) | inactive: -3.76% [at 46.1 µM] | –
CCC1C(=O)NCCN1C(=O)CCc1nnc(CCc2ccc(OC)cc2)o1 (configuration not stated) | – | inconclusive: 0.224 µM [inhibitor, partial curve, poor fit]
N#C[C@@H](C(=O)NC1CCCCC1)c1nc2ccccc2nc1N1CCN(c2ccccc2F)CC1 | inactive: -15% [at 46.1 µM] | –
Cn1c(SCC(=O)c2ccccc2)nnc1-c1ccco1 | inactive: 11.8% | –
CCOc1cc(C(=O)N(CC)CC(=O)Nc2c(F)cccc2F)ccc1OCC(=O)N1CCOCC1 | – | inconclusive: 5.62 µM [inhibitor, single point]
CCc1ccc2oc(-c3cccc(NC(=O)c4cccnc4)c3)nc2c1 | – | inconclusive: 35.5 µM [inhibitor, single point]
COCCCn1cc(C(=O)c2cc(Br)ccc2O)cc(C#N)c1=O | – | active: 1.58 µM
N/C(=N\OC(=O)CCCOc1ccccc1)c1cccc(Br)c1 | – | inconclusive: 0.112 µM [inhibitor, full curve, poor fit]
CC(=O)c1cccc(NC(=O)c2cc3sc(Cl)cc3n2C)c1 | – | inconclusive: 10 µM [activator, partial curve, poor fit]
CN1C=CC=C/C1=C1\SC(=S)N(Cc2ccccc2)C1=O | – | inconclusive: 35.5 µM [activator, single point]
